Here are results for 2 substances from article PMC8365426.

By UniProt entry, the sequences of proteins in these tests, tags left out. Where a name states a change or a piece, a line headed by the entry shows the natural chain unless it says otherwise. Residues count along the entry.
UniProt Q8C581: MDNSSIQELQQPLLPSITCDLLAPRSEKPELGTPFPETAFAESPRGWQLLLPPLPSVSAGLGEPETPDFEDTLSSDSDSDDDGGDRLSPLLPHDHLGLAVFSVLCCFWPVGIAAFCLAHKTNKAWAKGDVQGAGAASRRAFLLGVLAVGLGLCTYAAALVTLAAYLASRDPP
UniProt Q3USQ7: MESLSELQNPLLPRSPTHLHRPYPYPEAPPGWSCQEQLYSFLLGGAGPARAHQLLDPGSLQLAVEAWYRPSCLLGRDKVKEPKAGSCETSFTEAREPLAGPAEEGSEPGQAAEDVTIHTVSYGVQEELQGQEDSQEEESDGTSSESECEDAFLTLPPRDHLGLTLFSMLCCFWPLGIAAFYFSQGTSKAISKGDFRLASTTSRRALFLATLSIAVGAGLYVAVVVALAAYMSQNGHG
UniProt P19491, residues 22-883: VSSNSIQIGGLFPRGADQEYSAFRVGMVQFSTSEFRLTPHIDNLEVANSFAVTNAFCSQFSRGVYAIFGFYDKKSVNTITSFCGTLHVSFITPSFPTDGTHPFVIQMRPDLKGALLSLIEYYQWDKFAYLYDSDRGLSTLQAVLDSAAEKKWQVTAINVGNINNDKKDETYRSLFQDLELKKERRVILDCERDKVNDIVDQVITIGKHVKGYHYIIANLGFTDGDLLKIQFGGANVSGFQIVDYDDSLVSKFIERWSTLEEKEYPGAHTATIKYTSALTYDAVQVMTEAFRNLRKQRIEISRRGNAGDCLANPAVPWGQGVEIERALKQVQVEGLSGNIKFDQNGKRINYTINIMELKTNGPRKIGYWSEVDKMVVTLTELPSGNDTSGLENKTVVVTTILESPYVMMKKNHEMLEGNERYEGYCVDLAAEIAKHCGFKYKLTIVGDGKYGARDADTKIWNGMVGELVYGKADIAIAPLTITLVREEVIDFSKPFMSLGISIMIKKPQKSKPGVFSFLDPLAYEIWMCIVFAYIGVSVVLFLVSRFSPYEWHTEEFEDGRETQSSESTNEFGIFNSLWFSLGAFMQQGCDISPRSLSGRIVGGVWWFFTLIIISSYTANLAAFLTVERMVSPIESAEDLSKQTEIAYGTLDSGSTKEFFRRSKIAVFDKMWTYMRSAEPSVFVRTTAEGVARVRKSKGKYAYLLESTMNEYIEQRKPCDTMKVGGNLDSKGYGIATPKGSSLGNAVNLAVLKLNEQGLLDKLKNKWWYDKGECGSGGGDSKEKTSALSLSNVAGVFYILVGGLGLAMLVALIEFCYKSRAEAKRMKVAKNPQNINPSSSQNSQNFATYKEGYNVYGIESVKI
UniProt P19492, residues 23-888: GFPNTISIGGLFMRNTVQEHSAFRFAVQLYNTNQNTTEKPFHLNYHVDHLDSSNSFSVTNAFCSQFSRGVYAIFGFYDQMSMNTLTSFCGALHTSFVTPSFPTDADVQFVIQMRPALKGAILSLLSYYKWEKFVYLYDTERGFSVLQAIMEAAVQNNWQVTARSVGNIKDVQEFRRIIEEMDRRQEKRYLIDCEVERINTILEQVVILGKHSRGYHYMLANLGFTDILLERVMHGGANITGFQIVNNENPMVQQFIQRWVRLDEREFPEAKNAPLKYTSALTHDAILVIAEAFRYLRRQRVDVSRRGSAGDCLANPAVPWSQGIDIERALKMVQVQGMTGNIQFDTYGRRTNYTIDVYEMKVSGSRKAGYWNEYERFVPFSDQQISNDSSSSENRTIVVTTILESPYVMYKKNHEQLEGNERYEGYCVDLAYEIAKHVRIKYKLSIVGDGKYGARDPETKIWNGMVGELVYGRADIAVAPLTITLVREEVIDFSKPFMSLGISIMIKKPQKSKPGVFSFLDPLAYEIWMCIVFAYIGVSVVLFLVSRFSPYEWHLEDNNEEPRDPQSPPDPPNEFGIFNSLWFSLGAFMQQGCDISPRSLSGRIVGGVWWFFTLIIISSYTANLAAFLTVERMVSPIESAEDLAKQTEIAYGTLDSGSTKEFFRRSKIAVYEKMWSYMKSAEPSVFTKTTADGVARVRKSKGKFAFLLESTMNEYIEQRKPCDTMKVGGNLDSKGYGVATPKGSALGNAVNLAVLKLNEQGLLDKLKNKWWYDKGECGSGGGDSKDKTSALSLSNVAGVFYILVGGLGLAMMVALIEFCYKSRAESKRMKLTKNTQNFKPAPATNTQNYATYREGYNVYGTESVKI

The target of experiment [1] is GFP-tagged DspC3 (SynDIG3) (mouse) (UniProt Q8C581). Put plainly: co-IP; lysates of HEK293 cells expressing GFP-tagged dispanin family members and AMPAR subunits (Supplementary Figure 1); antibody of the immunoprecipitation not given.
The target in experiment [2] is GFP-tagged DspC1 (SynDIG2) (mouse) (UniProt Q3USQ7). The experiment is described as above.

Results are given in words; binding and its absence hold for the method and conditions named. Binding seen in cells or lysates may run through a third protein. Binding calls can cover weak binding; strength is not graded here.

Consider “Flag-GluA2 (from UniProt P19491 22-883) (receptor)”, for which the binding entry in experiment [1] and in experiment [2] was “binds” throughout.
Regarding “Flag-GluA3 (from UniProt P19492 23-888) (receptor)”, the binding result in experiment [1] and in experiment [2] was “binds” throughout.
